Data as given in PubChem BioAssay AID686943 (Drosophila RNAi Screening Center, 2013).
In all, the deposit lists about 23,000 reagents; below is a random part of those with a known target gene and a result. 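Extra replicates exist only for a retested subset of genes; insulin dose and duration not given; both raised and lowered dpERK matter.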 The numbers tell different reagents against one gene apart. Names joined by + are all predicted targets of the reagent. Not all columns of the deposit are shown. The record does not give: the amount of reagent, the time to read-out.

Screen: 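Fly genes whose loss alters ERK activation after insulin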 (primary screen)
Cells: Drosophila S2R+ haemocyte-like cells expressing YFP-tagged ERK (Rolled)
Reagents: long dsRNA against Drosophila genes
Conditions: insulin stimulation versus unstimulated cells; dose and duration not given
Measured: 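Per-plate z-scores of phospho-ERK immunostaining normalised to YFP-tagged ERK, measured with and without insulin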
Reading the numbers: replicate 1, z-score of dpERK with insulin: higher = more active ERK per ERK-YFP after insulin

Tango9
- replicate 1, z-score of dpERK with insulin: -0.15

CG2126
- replicate 1, z-score of dpERK with insulin: 1.93

CaBP1
- replicate 1, z-score of dpERK with insulin: -0.55

S1P
- replicate 1, z-score of dpERK with insulin: 0.71

lncRNA:CR32661 + lncRNA:CR43157
- replicate 1, z-score of dpERK with insulin: 0.61

CG3726
- replicate 1, z-score of dpERK with insulin: -1.31

nop5
- replicate 1, z-score of dpERK with insulin: -0.2

mol #1
- replicate 1, z-score of dpERK with insulin: -1.94

mol #2
- replicate 1, z-score of dpERK with insulin: -1.62

mol #3
- replicate 1, z-score of dpERK with insulin: -0.18

Hil #1
- replicate 1, z-score of dpERK with insulin: 0.08

Hil #2
- replicate 1, z-score of dpERK with insulin: -0.57

CG33506
- replicate 1, z-score of dpERK with insulin: 0.52

CG31267
- replicate 1, z-score of dpERK with insulin: 0.36

CG17637
- replicate 1, z-score of dpERK with insulin: -0.1

hoka
- replicate 1, z-score of dpERK with insulin: -0.18

lva
- replicate 1, z-score of dpERK with insulin: 0.66

CG7744
- replicate 1, z-score of dpERK with insulin: -0.76

rols #1
- replicate 1, z-score of dpERK with insulin: -0.73

rols #2
- replicate 1, z-score of dpERK with insulin: -0.09

rols #3
- replicate 1, z-score of dpERK with insulin: 0.85

pdm3 #1
- replicate 1, z-score of dpERK with insulin: 0.07

pdm3 #2
- replicate 1, z-score of dpERK with insulin: 0.61

pdm3 #3
- replicate 1, z-score of dpERK with insulin: -0.43

CG11550
- replicate 1, z-score of dpERK with insulin: -0.14

Eph
- replicate 1, z-score of dpERK with insulin: -1.13

Ho
- replicate 1, z-score of dpERK with insulin: 0.14

CG33262
- replicate 1, z-score of dpERK with insulin: -0.23

dlp #1
- replicate 1, z-score of dpERK with insulin: 0.47

dlp #2
- replicate 1, z-score of dpERK with insulin: -0.88

CG31221 #1
- replicate 1, z-score of dpERK with insulin: -1.28

CG31221 #2
- replicate 1, z-score of dpERK with insulin: 0.49

3 entries already listed, sorted by “replicate 1, z-score of dpERK with insulin”, high to low.
lva
- replicate 1, z-score of dpERK with insulin: 0.66

hoka
- replicate 1, z-score of dpERK with insulin: -0.18

CG7744
- replicate 1, z-score of dpERK with insulin: -0.76
